Results reported in the supplement of paper PMC12823440, “Inhibitors supercharge kinase turnover through native proteolytic circuits” (Nature, 2025).
Some of the results follow. Hit calls seldom repeat between salt and free forms of one compound.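 Kinases, fused to nanoluciferase, were expressed in K562 cells; luminescence was measured every 4 h from 2 to 18 h as percent of control (DMSO = 100%, positive control = 0%). A time point is decreased if signal falls significantly (2 sigma). Hits were called by the authors by a rule that is not shown; the count of time points alone does not decide it.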

The chains behind the UniProt entries cited, without tags or fusion partners. Where a name states a change or a piece, a line headed by the entry shows the natural chain unless it says otherwise.
UniProt P53671: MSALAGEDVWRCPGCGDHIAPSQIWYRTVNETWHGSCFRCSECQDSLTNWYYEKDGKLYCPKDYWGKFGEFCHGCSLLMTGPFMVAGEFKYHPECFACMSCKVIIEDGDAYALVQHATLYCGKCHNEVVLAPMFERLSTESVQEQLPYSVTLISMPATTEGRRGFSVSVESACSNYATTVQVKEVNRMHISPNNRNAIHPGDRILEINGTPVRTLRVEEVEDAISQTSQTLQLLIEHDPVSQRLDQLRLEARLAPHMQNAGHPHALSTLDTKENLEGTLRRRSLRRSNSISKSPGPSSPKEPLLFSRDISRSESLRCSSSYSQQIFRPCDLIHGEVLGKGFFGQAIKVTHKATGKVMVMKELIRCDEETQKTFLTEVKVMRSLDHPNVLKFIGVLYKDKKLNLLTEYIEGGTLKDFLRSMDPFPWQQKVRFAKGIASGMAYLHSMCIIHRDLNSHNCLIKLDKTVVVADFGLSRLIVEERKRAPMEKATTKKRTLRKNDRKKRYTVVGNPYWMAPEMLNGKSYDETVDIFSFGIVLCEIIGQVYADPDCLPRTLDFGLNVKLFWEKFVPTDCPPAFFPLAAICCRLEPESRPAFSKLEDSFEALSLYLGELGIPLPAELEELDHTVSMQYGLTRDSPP
UniProt P31749: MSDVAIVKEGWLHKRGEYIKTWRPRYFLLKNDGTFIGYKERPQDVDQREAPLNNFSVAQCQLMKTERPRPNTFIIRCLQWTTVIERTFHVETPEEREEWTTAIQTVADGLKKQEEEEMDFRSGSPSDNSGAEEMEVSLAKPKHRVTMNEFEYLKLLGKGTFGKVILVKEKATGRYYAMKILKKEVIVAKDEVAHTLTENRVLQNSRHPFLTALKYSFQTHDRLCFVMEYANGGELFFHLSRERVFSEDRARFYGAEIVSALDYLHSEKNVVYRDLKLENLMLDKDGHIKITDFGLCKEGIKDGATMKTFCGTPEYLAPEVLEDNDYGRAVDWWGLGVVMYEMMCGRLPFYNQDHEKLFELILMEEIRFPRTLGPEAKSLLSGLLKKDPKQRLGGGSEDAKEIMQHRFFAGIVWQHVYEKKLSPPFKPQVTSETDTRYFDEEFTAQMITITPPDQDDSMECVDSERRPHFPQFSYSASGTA
UniProt Q15118, whole entry, looked up: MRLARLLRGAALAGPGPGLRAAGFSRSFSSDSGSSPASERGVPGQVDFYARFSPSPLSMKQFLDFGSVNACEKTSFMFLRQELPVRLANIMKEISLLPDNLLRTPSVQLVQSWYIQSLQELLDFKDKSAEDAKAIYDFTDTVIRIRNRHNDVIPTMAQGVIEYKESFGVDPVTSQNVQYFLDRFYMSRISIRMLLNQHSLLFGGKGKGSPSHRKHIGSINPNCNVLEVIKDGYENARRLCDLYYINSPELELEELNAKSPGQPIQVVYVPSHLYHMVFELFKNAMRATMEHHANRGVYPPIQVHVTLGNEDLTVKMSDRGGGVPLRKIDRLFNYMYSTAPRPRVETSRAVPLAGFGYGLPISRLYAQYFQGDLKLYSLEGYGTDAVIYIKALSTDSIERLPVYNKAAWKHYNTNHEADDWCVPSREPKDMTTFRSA
UniProt Q9BRS2: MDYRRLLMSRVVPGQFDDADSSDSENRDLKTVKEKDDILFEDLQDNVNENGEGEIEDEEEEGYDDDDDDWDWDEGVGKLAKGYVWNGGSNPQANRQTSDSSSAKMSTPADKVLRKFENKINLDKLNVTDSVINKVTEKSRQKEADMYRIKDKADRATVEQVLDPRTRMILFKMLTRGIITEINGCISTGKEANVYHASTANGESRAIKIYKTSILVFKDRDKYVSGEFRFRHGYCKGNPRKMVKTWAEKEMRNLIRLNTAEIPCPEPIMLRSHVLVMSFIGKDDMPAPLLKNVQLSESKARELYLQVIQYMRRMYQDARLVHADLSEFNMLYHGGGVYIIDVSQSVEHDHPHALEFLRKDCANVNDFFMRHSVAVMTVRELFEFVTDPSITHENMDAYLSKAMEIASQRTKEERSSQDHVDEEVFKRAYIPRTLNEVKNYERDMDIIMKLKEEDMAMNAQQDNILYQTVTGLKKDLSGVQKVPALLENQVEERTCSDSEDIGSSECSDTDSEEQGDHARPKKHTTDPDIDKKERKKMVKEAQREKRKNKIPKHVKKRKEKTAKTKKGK
UniProt Q9UQB9: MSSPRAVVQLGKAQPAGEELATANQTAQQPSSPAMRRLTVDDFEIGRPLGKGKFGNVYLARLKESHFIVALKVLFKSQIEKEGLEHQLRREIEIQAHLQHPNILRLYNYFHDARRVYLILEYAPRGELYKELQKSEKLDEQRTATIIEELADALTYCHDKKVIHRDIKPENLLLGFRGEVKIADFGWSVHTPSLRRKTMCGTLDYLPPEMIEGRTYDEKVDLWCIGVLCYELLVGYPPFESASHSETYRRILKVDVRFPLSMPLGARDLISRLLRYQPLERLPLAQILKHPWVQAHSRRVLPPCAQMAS
UniProt P42680: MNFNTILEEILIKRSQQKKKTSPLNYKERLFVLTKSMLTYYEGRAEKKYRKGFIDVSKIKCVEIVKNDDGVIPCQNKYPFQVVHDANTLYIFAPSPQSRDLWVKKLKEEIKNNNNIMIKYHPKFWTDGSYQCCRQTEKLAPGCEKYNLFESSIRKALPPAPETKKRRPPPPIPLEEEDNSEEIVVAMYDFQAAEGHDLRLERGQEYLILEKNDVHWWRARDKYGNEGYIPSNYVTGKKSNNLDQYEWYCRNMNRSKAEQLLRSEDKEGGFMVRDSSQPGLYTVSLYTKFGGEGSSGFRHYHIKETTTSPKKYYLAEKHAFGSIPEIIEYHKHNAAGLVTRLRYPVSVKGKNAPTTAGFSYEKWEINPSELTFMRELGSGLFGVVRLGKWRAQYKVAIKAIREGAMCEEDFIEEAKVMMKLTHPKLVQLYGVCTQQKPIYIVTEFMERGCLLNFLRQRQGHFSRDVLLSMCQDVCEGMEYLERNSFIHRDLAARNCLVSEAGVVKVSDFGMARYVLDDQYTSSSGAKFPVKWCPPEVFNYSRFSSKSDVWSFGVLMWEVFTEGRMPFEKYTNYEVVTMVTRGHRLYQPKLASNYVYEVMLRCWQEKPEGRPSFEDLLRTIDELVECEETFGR
UniProt Q14289, whole entry, looked up: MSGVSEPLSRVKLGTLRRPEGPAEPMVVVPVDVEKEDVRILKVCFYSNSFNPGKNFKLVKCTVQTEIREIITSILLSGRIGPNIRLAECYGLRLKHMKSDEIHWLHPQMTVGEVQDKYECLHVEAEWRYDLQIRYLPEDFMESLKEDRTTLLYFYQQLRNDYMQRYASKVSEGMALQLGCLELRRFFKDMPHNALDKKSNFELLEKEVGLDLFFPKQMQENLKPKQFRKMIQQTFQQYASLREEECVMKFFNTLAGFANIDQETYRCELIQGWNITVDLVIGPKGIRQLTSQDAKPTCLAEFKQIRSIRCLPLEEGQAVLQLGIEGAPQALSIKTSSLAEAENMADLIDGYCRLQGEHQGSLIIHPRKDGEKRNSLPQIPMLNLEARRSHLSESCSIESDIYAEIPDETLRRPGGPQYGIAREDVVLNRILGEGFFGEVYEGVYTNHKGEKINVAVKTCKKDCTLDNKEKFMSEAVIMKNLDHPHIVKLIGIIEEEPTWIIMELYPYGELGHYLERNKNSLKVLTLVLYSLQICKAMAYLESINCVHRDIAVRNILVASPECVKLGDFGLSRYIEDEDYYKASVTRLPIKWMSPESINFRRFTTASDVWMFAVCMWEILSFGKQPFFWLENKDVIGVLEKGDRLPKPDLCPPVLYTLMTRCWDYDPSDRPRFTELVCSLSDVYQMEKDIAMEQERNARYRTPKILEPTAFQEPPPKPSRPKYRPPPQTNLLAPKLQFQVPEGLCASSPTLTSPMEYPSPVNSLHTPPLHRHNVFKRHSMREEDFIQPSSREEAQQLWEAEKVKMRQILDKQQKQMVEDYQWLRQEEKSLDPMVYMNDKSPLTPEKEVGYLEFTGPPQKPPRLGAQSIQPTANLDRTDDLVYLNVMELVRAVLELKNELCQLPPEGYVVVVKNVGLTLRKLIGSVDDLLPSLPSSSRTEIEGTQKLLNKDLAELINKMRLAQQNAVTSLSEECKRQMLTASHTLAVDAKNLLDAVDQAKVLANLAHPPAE
UniProt P51451: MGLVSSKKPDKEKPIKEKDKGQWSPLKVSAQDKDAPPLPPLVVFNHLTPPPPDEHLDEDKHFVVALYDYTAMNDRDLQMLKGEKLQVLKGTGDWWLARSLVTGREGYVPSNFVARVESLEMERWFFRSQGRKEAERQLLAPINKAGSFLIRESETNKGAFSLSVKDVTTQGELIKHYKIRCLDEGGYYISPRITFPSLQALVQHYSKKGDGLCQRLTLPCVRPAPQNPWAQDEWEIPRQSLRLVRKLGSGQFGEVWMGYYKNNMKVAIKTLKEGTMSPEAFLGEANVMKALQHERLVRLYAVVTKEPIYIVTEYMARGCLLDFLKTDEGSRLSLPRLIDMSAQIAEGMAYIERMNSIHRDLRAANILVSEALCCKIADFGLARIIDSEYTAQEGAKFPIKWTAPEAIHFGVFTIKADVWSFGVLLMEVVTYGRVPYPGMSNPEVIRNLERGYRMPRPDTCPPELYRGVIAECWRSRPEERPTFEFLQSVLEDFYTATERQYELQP
UniProt Q9Y616: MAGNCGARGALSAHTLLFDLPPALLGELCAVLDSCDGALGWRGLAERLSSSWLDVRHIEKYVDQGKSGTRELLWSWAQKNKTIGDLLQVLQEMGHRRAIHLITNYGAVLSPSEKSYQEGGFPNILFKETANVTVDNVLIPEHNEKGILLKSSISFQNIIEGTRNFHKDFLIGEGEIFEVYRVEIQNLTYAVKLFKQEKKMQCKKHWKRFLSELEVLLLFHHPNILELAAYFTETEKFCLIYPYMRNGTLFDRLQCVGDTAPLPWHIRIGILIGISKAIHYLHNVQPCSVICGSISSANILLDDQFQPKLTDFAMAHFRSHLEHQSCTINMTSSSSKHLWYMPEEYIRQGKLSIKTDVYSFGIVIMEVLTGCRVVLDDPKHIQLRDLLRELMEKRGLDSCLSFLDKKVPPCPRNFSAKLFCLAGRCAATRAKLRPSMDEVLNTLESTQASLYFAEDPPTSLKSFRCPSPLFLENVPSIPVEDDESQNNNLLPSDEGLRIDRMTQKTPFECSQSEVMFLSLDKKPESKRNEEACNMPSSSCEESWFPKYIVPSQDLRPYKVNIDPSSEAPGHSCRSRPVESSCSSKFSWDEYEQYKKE
UniProt Q13131: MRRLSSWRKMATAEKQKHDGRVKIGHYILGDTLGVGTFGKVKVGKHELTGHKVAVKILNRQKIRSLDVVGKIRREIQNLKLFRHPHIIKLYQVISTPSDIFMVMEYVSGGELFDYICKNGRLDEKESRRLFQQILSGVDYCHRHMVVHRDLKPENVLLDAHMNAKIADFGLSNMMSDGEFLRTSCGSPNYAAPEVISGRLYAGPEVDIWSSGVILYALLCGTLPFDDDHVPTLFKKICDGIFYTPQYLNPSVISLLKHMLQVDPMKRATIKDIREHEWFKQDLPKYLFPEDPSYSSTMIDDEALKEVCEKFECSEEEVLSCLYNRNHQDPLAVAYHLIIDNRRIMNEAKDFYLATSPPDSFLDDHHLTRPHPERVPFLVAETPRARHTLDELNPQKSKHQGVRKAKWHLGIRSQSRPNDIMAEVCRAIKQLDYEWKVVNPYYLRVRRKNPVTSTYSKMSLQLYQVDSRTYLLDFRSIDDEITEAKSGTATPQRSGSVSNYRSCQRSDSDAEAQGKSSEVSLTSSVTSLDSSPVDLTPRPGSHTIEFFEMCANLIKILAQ

What was measured:
Assay in all cases: number of time points (of 5) at which kinase-Nluc abundance scored as decreased, DMSO-normalised (count); higher = more persistent destabilization
[1] = compound: C#Cc1cccc(Nc2ncnc3cc(OCCOC)c(OCCO)cc23)c1 [Desmethyl Erlotinib (hydrochloride)]; conditions: 10 µM; K562; 2-18 h
Desmethyl Erlotinib = compound: C#Cc1cccc(Nc2ncnc3cc(OCCOC)c(OCCO)cc23)c1 [Desmethyl Erlotinib]; conditions: 10 µM; K562; 2-18 h
[2] = compound: C#Cc1cccc(Nc2ncnc3cc(OCCOC)c(OCCOC)cc23)c1 [Erlotinib (Hydrochloride)]; conditions: 10 µM; K562; 2-18 h
Erlotinib = compound: C#Cc1cccc(Nc2ncnc3cc(OCCOC)c(OCCOC)cc23)c1 [Erlotinib]; conditions: 10 µM; K562; 2-18 h
Icotinib (Hydrochloride) = compound: C#Cc1cccc(Nc2ncnc3cc4c(cc23)OCCOCCOCCO4)c1 [Icotinib (Hydrochloride)]; conditions: 10 µM; K562; 2-18 h
Icotinib = compound: C#Cc1cccc(Nc2ncnc3cc4c(cc23)OCCOCCOCCO4)c1 [Icotinib]; conditions: 10 µM; K562; 2-18 h
(Z)-Guggulsterone = compound: C/C=C1\C(=O)C[C@H]2[C@@H]3CCC4=CC(=O)CC[C@]4(C)[C@H]3CC[C@]12C [(Z)-Guggulsterone]; conditions: 10 µM; K562; 2-18 h
Guggulsterone = compound: C/C=C1\C(=O)C[C@H]2[C@@H]3CCC4=CC(=O)CC[C@]4(C)[C@H]3CC[C@]12C [Guggulsterone]; conditions: 10 µM; K562; 2-18 h
[3] = compound: C=CC(=O)N1CCN(c2ncnc3c(F)c(-c4c(O)cccc4F)c(Cl)cc23)CC1; conditions: K562, 2-18 h
Mobocertinib (succinate) = compound: C=CC(=O)Nc1cc(Nc2ncc(C(=O)OC(C)C)c(-c3cn(C)c4ccccc34)n2)c(OC)cc1N(C)CCN(C)C [Mobocertinib (succinate)]; conditions: 10 µM; K562; 2-18 h
Mobocertinib = compound: C=CC(=O)Nc1cc(Nc2ncc(C(=O)OC(C)C)c(-c3cn(C)c4ccccc34)n2)c(OC)cc1N(C)CCN(C)C [Mobocertinib]; conditions: 10 µM; K562; 2-18 h
Osimertinib (dimesylate) = compound: C=CC(=O)Nc1cc(Nc2nccc(-c3cn(C)c4ccccc34)n2)c(OC)cc1N(C)CCN(C)C [Osimertinib (dimesylate)]; conditions: 2.5 µM; K562; 2-18 h
Osimertinib mesylate = compound: C=CC(=O)Nc1cc(Nc2nccc(-c3cn(C)c4ccccc34)n2)c(OC)cc1N(C)CCN(C)C [Osimertinib mesylate]; conditions: 2.5 µM; K562; 2-18 h
Osimertinib = compound: C=CC(=O)Nc1cc(Nc2nccc(-c3cn(C)c4ccccc34)n2)c(OC)cc1N(C)CCN(C)C [Osimertinib]; conditions: 2.5 µM; K562; 2-18 h
[4] = compound: C=CC(=O)Nc1cc(Nc2nccc(-c3cn(C4CC4)c4ccccc34)n2)c(OC)cc1N(C)CCN(C)C [Almonertinib (hydrochloride)]; conditions: 2.5 µM; K562; 2-18 h
Almonertinib = compound: C=CC(=O)Nc1cc(Nc2nccc(-c3cn(C4CC4)c4ccccc34)n2)c(OC)cc1N(C)CCN(C)C [Almonertinib]; conditions: 2.5 µM; K562; 2-18 h
AV-412 (free base) = compound: C=CC(=O)Nc1cc2c(Nc3ccc(F)c(Cl)c3)ncnc2cc1C#CC(C)(C)N1CCN(C)CC1 [AV-412 (free base)]; conditions: 2.5 µM; K562; 2-18 h
[5] = compound: C=CC(=O)Nc1cc2c(Nc3ccc(F)c(Cl)c3)ncnc2cc1C#CC(C)(C)N1CCN(C)CC1; conditions: 2.5 µM; K562; 2-18 h
[6] = compound: CC(=O)N[C@H](Cc1ccc(O)cc1)C(=O)N[C@H](CCCN=C(N)N)C(=O)N[C@H](Cc1ccccc1)C(N)=O; conditions: 10 µM; K562; 2-18 h
[7] = compound: CC(=O)Nc1cccc(-n2c(=O)n(C3CC3)c(=O)c3c(Nc4ccc(I)cc4F)n(C)c(=O)c(C)c32)c1 [Trametinib (DMSO solvate)]; conditions: 10 µM; K562; 2-18 h

| Target | number of time points [1] | number of time points (Desmethyl Erlotinib) | number of time points [2] | number of time points (Erlotinib) | number of time points (Icotinib (Hydrochloride)) | number of time points (Icotinib) | number of time points ((Z)-Guggulsterone) | number of time points (Guggulsterone) | number of time points ([3]; 2.5 µM) | number of time points ([3]; 10 µM) | number of time points (Mobocertinib (succinate)) | number of time points (Mobocertinib) | number of time points (Osimertinib (dimesylate)) | number of time points (Osimertinib mesylate) | number of time points (Osimertinib) | number of time points [4] | number of time points (Almonertinib) | number of time points (AV-412 (free base)) | number of time points [5] | number of time points [6] | number of time points [7] |
| --- | --- | --- | --- | --- | --- | --- | --- | --- | --- | --- | --- | --- | --- | --- | --- | --- | --- | --- | --- | --- | --- |
| LIMK2 (UniProt P53671) | 0 | 0 | 0 | 0 | 0 | 0 | 0 | 0 | 0 | 0 | 0 | 0 | 0 | 0 | 0 | 0 | 0 | 3 | 5 | 0 | 0 |
| AKT1 (UniProt P31749) | 0 | 0 | 0 | 0 | 0 | 0 | 0 | 0 | 0 | 0 | 0 | 0 | 0 | 0 | 0 | 0 | 0 | 0 | 0 | 0 | 0 |
| MAP2K2 (UniProt P36507) | 0 | 0 | 0 | 0 | 0 | 0 | 0 | 0 | 0 | 0 | 0 | 0 | 0 | 0 | 0 | 0 | 0 | 0 | 0 | 0 | 0 |
| PDK1 (UniProt Q15118) | 0 | 0 | 0 | 0 | 0 | 0 | 0 | 0 | 0 | 0 | 0 | 0 | 0 | 0 | 0 | 0 | 0 | 0 | 0 | 0 | 0 |
| RIOK1 (UniProt Q9BRS2) | 0 | 0 | 0 | 0 | 0 | 0 | 0 | 0 | 0 | 0 | 0 | 0 | 0 | 0 | 0 | 0 | 0 | 0 | 0 | 0 | 0 |
| AURKC (UniProt Q9UQB9) | 0 | 0 | 0 | 0 | 0 | 0 | 0 | 0 | 0 | 0 | 0 | 0 | 0 | 0 | 0 | 0 | 0 | 0 | 0 | 0 | 0 |
| TEC (UniProt P42680) | 0 | 0 | 0 | 0 | 0 | 0 | 0 | 0 | 0 | 0 | 0 | 0 | 0 | 0 | 0 | 0 | 0 | 0 | 0 | 0 | 0 |
| PTK2B (UniProt Q14289) | 0 | 0 | 0 | 0 | 0 | 0 | 0 | 0 | 0 | 0 | 0 | 0 | 0 | 0 | 0 | 0 | 0 | 0 | 0 | 0 | 0 |
| HER2 (UniProt P04626) | 5 | 0 | 0 | 0 | 0 | 0 | 0 | 0 | 0 | 0 | 3 | 4 | 4 | 4 | 4 | 4 | 4 | 5 | 5 | 0 | 2 |
| BLK (UniProt P51451) | 0 | 0 | 0 | 0 | 0 | 0 | 0 | 0 | 0 | 0 | 0 | 0 | 1 | 4 | 0 | 0 | 1 | 4 | 4 | 0 | 0 |
| IRAK3 (UniProt Q9Y616) | 0 | 0 | 0 | 0 | 0 | 0 | 0 | 0 | 0 | 0 | 0 | 0 | 0 | 0 | 0 | 0 | 0 | 0 | 0 | 0 | 0 |
| BRAF_V600E | 0 | 0 | 0 | 0 | 0 | 1 | 0 | 0 | 0 | 0 | 0 | 0 | 1 | 1 | 2 | 0 | 0 | 4 | 1 | 0 | 1 |
| PRKAA1 (UniProt Q13131) | 5 | 0 | 0 | 0 | 0 | 0 | 0 | 0 | 0 | 0 | 0 | 0 | 0 | 0 | 0 | 0 | 0 | 0 | 0 | 0 | 0 |
